Measurements taken from publication PMC7592556.
No constants are given. Whether binding was seen depends on the method and setting. Binding seen in cells or lysates may run through a third protein. A yes stands for co-enrichment or nearness to the bait. Other partners may have been found. Blank lines part the entries; values can stand above or below the molecule they belong to.

Amino acid sequences for entries named in this document (tags omitted). A change or cut given only in a name is not applied to a line headed by its entry. Residues count along the entry.
His6-SUMO fusion protein of the complete Shank3 N-terminus (SPN-Ank, residues 1-348) (Q9JLU4, residues 1-348): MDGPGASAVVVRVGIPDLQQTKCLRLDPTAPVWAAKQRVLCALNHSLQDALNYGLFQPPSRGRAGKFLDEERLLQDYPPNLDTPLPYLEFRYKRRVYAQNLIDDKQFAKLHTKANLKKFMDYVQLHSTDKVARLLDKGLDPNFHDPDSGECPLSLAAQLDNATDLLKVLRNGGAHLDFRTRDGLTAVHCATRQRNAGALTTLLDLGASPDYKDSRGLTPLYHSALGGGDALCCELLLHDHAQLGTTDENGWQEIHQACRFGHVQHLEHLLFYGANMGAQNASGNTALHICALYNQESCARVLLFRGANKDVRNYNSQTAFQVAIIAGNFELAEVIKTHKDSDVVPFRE
His6-SUMO fusion protein of the Shank3 Ank repeats (residues 99-348) (Q9JLU4, residues 99-348): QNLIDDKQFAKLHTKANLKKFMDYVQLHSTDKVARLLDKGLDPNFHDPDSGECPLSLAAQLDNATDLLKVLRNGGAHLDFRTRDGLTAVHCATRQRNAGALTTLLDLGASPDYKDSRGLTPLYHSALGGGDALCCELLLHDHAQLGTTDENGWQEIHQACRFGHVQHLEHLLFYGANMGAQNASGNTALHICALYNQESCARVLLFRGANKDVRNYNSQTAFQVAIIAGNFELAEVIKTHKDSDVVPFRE
UniProt Q3UHD9: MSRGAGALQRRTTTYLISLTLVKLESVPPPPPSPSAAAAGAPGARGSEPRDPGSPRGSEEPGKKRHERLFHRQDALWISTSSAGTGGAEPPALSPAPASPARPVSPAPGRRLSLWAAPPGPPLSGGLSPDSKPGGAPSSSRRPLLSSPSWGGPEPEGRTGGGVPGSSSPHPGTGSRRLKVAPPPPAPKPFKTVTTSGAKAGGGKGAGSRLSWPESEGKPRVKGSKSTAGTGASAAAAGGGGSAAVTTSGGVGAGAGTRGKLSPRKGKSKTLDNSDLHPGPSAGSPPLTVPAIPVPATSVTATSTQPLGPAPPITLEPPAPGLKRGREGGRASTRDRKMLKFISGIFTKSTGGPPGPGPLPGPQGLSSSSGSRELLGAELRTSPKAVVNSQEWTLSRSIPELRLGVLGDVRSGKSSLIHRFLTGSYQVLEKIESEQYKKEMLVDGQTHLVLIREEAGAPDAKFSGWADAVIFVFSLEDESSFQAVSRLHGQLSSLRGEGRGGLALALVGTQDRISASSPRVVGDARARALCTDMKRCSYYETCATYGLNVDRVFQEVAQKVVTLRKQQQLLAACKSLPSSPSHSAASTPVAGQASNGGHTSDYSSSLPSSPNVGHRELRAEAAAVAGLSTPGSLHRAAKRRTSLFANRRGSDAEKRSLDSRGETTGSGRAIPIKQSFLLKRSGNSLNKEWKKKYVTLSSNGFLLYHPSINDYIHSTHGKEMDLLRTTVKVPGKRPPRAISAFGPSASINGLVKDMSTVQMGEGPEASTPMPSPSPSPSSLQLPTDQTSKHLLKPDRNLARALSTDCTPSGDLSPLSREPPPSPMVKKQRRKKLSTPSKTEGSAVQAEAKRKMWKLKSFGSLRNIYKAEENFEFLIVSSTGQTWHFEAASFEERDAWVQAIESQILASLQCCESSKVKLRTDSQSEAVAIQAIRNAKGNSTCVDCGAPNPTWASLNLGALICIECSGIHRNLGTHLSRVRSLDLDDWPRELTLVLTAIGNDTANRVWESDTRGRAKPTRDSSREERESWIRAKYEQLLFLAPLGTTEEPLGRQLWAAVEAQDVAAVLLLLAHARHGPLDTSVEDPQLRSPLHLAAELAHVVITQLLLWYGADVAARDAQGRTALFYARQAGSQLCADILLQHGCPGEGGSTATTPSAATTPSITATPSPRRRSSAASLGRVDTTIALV
UniProt P15116: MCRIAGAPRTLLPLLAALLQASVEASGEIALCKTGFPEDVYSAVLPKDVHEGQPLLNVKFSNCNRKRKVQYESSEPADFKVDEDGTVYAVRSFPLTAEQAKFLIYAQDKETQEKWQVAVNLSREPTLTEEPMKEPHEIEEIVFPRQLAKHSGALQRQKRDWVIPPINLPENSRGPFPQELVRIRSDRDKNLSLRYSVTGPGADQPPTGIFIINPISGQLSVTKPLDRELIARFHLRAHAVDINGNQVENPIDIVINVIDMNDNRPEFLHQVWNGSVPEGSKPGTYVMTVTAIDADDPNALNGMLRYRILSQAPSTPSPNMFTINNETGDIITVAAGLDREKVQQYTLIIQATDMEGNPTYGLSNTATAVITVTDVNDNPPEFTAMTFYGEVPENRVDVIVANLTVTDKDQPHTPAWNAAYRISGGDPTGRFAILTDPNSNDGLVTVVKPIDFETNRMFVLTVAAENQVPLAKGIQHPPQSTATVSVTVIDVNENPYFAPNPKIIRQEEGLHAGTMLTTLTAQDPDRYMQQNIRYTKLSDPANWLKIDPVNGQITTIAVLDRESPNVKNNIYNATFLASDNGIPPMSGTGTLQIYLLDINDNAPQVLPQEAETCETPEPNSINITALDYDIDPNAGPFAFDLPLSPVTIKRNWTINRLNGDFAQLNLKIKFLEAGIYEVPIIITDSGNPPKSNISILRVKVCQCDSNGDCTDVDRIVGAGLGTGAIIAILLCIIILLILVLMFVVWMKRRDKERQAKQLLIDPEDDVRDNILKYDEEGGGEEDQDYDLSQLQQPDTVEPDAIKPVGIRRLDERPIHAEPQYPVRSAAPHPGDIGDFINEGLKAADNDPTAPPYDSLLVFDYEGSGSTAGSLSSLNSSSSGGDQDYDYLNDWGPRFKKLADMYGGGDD
UniProt Q62059, residues 24-3357: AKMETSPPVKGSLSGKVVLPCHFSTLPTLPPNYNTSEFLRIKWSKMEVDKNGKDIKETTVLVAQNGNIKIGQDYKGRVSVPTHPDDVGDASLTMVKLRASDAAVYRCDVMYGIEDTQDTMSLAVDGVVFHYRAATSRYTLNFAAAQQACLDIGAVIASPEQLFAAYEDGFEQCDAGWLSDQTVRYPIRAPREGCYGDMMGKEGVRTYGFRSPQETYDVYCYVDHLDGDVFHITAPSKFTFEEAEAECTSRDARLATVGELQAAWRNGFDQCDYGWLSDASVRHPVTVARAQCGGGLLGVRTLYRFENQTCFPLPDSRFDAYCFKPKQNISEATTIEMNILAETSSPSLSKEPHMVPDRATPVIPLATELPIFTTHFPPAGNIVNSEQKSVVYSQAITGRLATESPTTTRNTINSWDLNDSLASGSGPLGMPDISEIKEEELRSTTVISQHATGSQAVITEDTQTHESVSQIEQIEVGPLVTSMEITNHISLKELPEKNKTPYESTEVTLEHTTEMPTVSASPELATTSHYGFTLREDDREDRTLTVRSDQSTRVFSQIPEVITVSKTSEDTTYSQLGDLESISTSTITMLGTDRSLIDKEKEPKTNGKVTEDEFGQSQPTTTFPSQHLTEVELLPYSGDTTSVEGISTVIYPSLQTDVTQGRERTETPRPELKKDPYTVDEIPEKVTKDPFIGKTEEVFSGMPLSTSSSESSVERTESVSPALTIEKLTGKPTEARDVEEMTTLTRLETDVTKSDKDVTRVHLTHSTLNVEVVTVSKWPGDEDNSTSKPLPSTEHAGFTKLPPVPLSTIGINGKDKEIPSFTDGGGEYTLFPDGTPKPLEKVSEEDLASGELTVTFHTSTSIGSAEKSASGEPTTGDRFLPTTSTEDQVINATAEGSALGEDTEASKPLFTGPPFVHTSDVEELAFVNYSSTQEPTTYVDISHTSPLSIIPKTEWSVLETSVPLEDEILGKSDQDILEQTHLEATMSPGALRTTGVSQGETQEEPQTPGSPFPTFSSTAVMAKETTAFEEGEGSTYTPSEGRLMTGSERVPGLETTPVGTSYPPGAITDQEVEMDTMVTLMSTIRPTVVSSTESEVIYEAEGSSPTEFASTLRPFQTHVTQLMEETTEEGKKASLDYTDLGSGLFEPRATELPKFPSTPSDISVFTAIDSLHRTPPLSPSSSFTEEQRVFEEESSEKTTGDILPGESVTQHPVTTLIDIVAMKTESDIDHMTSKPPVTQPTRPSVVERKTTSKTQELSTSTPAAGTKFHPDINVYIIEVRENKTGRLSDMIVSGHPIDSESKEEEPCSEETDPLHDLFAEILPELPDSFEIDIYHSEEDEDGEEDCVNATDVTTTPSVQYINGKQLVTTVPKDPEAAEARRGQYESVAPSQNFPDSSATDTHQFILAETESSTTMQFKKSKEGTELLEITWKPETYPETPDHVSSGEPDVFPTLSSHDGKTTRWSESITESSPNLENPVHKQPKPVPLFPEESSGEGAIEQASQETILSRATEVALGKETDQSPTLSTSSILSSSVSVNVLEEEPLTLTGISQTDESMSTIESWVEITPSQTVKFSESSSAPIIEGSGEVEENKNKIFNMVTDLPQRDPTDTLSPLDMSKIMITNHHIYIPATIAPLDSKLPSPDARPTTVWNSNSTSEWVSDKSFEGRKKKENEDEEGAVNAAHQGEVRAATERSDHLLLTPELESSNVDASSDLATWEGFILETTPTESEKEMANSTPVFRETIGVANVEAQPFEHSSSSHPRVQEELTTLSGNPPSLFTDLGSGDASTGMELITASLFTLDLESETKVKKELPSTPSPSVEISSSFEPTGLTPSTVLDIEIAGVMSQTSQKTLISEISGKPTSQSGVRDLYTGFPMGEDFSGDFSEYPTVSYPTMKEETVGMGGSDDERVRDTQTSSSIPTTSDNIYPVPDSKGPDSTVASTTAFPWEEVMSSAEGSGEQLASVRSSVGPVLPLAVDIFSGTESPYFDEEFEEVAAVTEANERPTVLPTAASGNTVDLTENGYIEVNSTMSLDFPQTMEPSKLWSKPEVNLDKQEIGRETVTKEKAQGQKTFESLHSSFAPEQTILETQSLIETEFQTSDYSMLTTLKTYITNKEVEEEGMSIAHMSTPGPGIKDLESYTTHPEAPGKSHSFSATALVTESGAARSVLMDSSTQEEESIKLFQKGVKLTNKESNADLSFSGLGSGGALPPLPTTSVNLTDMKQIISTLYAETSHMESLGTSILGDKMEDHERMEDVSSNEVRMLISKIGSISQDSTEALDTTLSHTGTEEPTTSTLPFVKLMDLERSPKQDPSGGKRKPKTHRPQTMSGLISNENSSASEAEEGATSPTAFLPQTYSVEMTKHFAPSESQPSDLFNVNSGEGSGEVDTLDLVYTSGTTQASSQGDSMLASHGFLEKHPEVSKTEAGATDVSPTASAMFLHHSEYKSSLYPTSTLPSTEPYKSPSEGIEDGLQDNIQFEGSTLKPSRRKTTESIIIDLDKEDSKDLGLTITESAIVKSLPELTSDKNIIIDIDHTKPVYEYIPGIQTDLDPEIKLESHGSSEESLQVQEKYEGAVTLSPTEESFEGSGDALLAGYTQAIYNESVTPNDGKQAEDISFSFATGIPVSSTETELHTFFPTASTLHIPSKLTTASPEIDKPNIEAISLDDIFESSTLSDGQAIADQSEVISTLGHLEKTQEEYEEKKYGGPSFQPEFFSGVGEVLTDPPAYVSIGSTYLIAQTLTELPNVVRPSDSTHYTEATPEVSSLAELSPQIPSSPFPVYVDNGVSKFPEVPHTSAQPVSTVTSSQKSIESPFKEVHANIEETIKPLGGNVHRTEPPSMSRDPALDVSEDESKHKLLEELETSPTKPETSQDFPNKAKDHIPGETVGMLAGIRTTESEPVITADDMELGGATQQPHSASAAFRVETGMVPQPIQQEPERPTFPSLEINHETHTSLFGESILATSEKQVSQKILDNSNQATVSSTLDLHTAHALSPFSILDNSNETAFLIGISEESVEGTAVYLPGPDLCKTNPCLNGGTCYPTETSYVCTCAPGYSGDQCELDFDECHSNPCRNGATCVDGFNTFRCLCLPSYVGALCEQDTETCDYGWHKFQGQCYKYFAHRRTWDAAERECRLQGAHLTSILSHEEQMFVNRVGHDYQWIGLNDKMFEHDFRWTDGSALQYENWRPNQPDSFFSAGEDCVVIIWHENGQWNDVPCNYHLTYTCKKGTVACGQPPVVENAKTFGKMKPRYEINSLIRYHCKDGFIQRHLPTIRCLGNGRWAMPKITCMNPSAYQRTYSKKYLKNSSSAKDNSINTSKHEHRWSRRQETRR

Assays:
[1] = biological target: His6-SUMO fusion protein of the Shank3 Ank repeats (residues 99-348) (rat) (UniProt Q9JLU4); assay: affinity purification with mass spectrometry; His6-SUMO-Shank3 fragments (SPN-Ank or Ank only) coupled to NHS-Sepharose; mouse forebrain PSD fraction solubilised in DOC buffer (50 mM Tris pH 9.0, 1% Na-deoxycholate); 2 h, 5 washes; LC-MS/MS, LFQ intensities compared with a SUMO matrix; four purifications (two SPN-Ank, two Ank only); only the target purified
[2] = biological target: His6-SUMO fusion protein of the complete Shank3 N-terminus (SPN-Ank, residues 1-348) (rat) (UniProt Q9JLU4); assay: as above

binding [1]: binds | binding [2]: binds
Molecule: Arf-GAP with GTPase, ANK repeat and PH domain-containing protein 2 (from UniProt Q3UHD9 1-1186)

binding [1]: binds | binding [2]: binds
Molecule: Myosin phosphatase Rho-interacting protein (from UniProt P97434 1-1024)

binding [1]: binds | binding [2]: binds
Molecule: Probable ubiquitin carboxyl-terminal hydrolase FAF-X (from UniProt P70398 1-2559)

binding [1]: binds | binding [2]: binds
Molecule: Rho GTPase-activating protein 39 (from UniProt P59281 1-1107)

binding [1]: binds | binding [2]: binds
B3: Disks large-associated protein 4 (protein, UniProt B1AZP2 1-992)
chain: MKGLGDSRPRHLSDSLDPPHEPLFAGPDRNPYLLSPTEAFAREARFPGQNTLPGDGLFPLNNQLPPPSSTFPRIHYNSHFEVPEESPFPSHAQATKINRLPANLLDQFEKQLPIHRDGFSTLQFPRGEAKARGESPGRIRHLVHSVQRLFFTKAPSMEGTAGKVGGNGSKKGGLEDGKGRRAKSKERAKAGEPKRRSRSNISGWWSSDDNLDGEGGAFRSGPASGLMTLGRQQERTQPRYFMHAYNTISGHMLKTTKNTTTELTAPPPPPAPPATCPSLGVGTDTNYVKRGSWSTLTLSHAHEVCQKTSATLDKSLLKSKSCHQGLAYHYLQVPGGGGEWSTTLLSPRDMDSTAEGPIPCRRMRSGSYIKAMGDEDSDESGGGSPKPSPKTAARRQSYLRATQQSLGEQSNPRRSLDRLDSVDMLLPSKCPSWEDDYNPISDSLNDSSCISQVFGQASLIPQLFGHDQQVREADLSDQYEAACESACSEAESTTAEALDLPLPSYFRSRSHSYLRAIQAGCSQEEDSVSLQSLSPPPSTGSLSNSRTLPSSSCLVAYKKTPPPVPPRTTSKPFISVTVQSSTESAQDTYLDSQDHKSEVTSQSGLSNSSDSLDSSTRPPSVTRGGITPGPEAPEPPPKHAALKSEQGTLTSSESHSEAIPKRKLSSIGIQVDCIQPVPKEEPSPATKFQSIGIQVEDDWRSSAPSHSMSSRRDTDSDTQDANDSSCKSSERSLPDCTSHPNSISIDAGPRQAPKIAQIKRNLSYGDNSDPALEASSLPPPDPWLETSSSSPAEPAQPGACRRDGYWFLKLLQAETERLEGWCCQMDKETKENNLSEEVLGKVLSAVGSAQLLMSQKFQQFRGLCEQNLNPDANPRPTAQDLAGFWDLLQLSIEDISMKFDELYHLKANSWQLVETPEKRKEEKKPPPPVPKKPAKSKAAVSRDKASDAGDKQRQEARKRLLAAKRAASVRQNSATESADSIEIYVPEAQTRL

Continued, molecule first:

Molecule: Arf-GAP with GTPase, ANK repeat and PH domain-containing protein 3 (from UniProt Q8VHH5 1-910)
binding [1]: binds | binding [2]: binds

Molecule: Cadherin-2 (from UniProt P15116)
binding [1]: binds | binding [2]: binds

Molecule: Dynactin subunit 1 (from UniProt O08788 1-1281)
binding [1]: binds | binding [2]: binds

Molecule: Ras/Rap GTPase-activating protein SynGAP (from UniProt F6SEU4 1-1340)
binding [1]: binds | binding [2]: binds

Molecule: Versican core protein (from UniProt Q62059 24-3357)
binding [1]: binds | binding [2]: binds

Molecule: Voltage-dependent N-type calcium channel subunit alpha-1B (from UniProt O55017 1-2327)
binding [1]: binds | binding [2]: binds

Molecule: Voltage-dependent R-type calcium channel subunit alpha-1E (from UniProt Q61290 1-2272)
binding [1]: binds | binding [2]: binds

B1: Claudin-11 (protein, UniProt Q60771 1-207)
chain: MVATCLQVVGFVTSFVGWIGIIVTTSTNDWVVTCSYTIPTCRKMDELGSKGLWADCVMATGLYHCKPLVDILILPGYVQACRALMIAASVLGLPAILLLLTVLPCIRMGHEPGVAKYRRAQLAGVLLILLALCAIVATIWFPVCAHREITIVSFGYSLYAGWIGAVMCLVGGCVIVCCSGDAQSFGENRFYYSSGSSSPTHAKSAHV
binding [1]: binds | binding [2]: binds

B2: 14-3-3 protein sigma (protein, UniProt O70456 1-248)
chain: MERASLIQKAKLAEQAERYEDMAAFMKSAVEKGEELSCEERNLLSVAYKNVVGGQRAAWRVLSSIEQKSNEEGSEEKGPEVKEYREKVETELRGVCDTVLGLLDSHLIKGAGDAESRVFYLKMKGDYYRYLAEVATGDDKKRIIDSARSAYQEAMDISKKEMPPTNPIRLGLALNFSVFHYEIANSPEEAISLAKTTFDEAMADLHTLSEDSYKDSTLIMQLLRDNLTLWTADSAGEEGGEAPEEPQS
binding [1]: binds | binding [2]: binds

B4: Armadillo repeat protein deleted in velo-cardio-facial syndrome (protein, UniProt P98203 1-962)
chain: MEDCNVHSAASILASVKEQEARFERLTRALEQERRHVALQLERAQQPGMSSGGMVGSGQPLPMAWQQLVLQEQSPGSQASLATMPEAPEVLEETVTVEEDPGTPTSHVSIVTSEDGTTRRTETKVTKTVKTVTTRTVRQVPLGPDGLPLLDGGPPLGSFADGPLDRHYLLRGGGGPAATLSRTYHSSGGGFPDGPESRDIPSYGSLSRGLGVRPPRTGLLGPGPGDGCFTLPGRREAFPMGSESGPPSGRSLPEHFQAEPYGLEDDTRSLAADDEGGPDLEPDYSTATRRRPEYGRGLRARAFEDTADDAGELIEERPPFPAATAPLAQPERGSLGSLDRVVRRSPSVDSTRKEPRWRDPELPEVLAMLRHPVDPVKANAAAYLQHLCFENEGIKRRVRQLRGLPLLVALLDHPRAEVRRRACGALRNLSYGRDTDNKAAIRDCGGVPALVRLLRAARDNEVRELVTGTLWNLSSYEPLKMVIIDHGLQTLTHEVIVPHSGWEREPNEDSKPRDAEWTTVFKNTSGCLRNVSSDGAEARRRLRECEGLVDALLHALQSAVGRKDTDNKSVENCVCIMRNLSYHVHKEVPGADRYQEAEPGIPGSTTSQRRRKDDASCFGGKKAKEEWFHQGKKDAEMDRNFDTLDLPKRTEAAKGFELLYQPEVVRLYLSLLTESRNFNTLEAAAGALQNLSAGNWTWATYIRATVRKERGLPVLVELLQSETDKVVRAVAIALRNLSLDQRNKDLIGSYAMTELVRNVRNAQAPAHPSAHLEEDTVVAVLNTIHEIVSDSLDNARSLLQARGVPALVALVASSQSVREAKAASHVLQTVWSYKELRGALQRDGWTKSRFQSASTAKGPKGTPSSGGFDDSTLPLVDKSLDGEKSNTRDVIPMDTLGPDGYATVDRRERRTLGSDSTGDTSEKELLRPDPGRKAPPPGPSRPSVRLVDAVGDTKPQPVDSWV
binding [1]: binds | binding [2]: binds

B5: F-box only protein 41 (protein, UniProt Q6NS60 1-873)
chain: MASLDLPYRCPRCGEHKRFRSLSSLRAHLEYSHTYETLYILSKTNSICDGAAAAAAAAAAASGFPLAPEPAALLAVPGARREVFESTSFQGKEQATGPSPAGPHLLHHHHHHAPLAHFPADLVPASLPCEELAEPGLVPAARYALREIEIPLGELFARKSVASSACSTPPPGPGPGPCSGPSSASPASPSPADVAYEEGLARLKIRALEKLEVDRRLERLSEEVEQKIAGQVGRLQAELERKAAELETARQESARLGREKEELEERASELSRQVDVSVELLASLKQDLVHKEQELSRKQQEVVQIDQFLKETAAREASAKLRLQQFIEELLERADRAERQLQVISSSCGSTPSASLGRGGGGSASGPGVRGPGRMREHHAGSAVPSTYAVSRHGSSPSTGASSRVPAASQSSGCYDSDSLELPRPEEGPSEDSGPGGLGSRAQATNGGSERSQAPRSSGLRRQAIQNWQRRPRRHSTEGEEGDVSDVGSRTTESEAEGPSDVPRPGPAVAGPLNSCRLSARPEGGSGRGRRVERGSPSRSNEVISPEILKMRAALFCIFTYLDTRTLLHAAEVCRDWRFVARHPAVWTRVLLENARVCSKFLAMLAQWCTQAHSLTLQNLKPRQRGKKESKEEYARSTRGCLEAGLESLLKAAGGNLLILRISHCPNILTDRSLWLASCYCRALQAVTYRSATDPVGHEVIWALGAGCRDIVSLQVAPLHPCQQPTRFSNRCLQMIGRCWPHLRALGVGGAGCGVQGLASLARNCMRLQVLELDHVSEITQEVAAEVCREGLKGLEMLVLTATPVTPKALLHFNSICRNLKSIVVQIGIADYFKEPSSPEAQKLFEDMVTKLQALRRRPGFSKILHIKVEGGC
binding [1]: binds | binding [2]: binds

B6: Synaptosomal-associated protein 47 (protein, UniProt Q8R570 1-413)
chain: MSSDMRVHSWSCSYYLDLEKQWVSGKLTLTPHSLKFIVEKTEEVLVGLPLSSIIEIRKESSLFIFGAITVLEKGQTKHWFSSLQPSRNVVFNVIEHFWRELLLSQPGTAANIPSHVTRGQELIGLMANSQKRMEDTAKDLQQQSEQLDSVLKGLEKMESDLDVADRLLTELETPSWWPFGSKFWKMPAEENLKEGVSSTCEPFGKEGVVITVPAIISERAESHSKLGKLTVLVSALEIYDSCSLLLHRFEKEDVDDIKVHSPYEVSIRQRFIGKPDVAYQLISAKMPEVIPILEVQFSSKIELLEDALVLRNKVFASSAERHAASRPKGCTPHRELPTGGQEGEQLQLQKNLPLFSEGEAQELTQILSKMKGLALDTEAELERQDAALDGITVAVDRATLNVDKQNRRMRKLM
binding [1]: binds | binding [2]: binds
